The target of assay [1] is T1, SFB-YTHDF1-WT (UniProt Q9BYJ9).
T1 sequence: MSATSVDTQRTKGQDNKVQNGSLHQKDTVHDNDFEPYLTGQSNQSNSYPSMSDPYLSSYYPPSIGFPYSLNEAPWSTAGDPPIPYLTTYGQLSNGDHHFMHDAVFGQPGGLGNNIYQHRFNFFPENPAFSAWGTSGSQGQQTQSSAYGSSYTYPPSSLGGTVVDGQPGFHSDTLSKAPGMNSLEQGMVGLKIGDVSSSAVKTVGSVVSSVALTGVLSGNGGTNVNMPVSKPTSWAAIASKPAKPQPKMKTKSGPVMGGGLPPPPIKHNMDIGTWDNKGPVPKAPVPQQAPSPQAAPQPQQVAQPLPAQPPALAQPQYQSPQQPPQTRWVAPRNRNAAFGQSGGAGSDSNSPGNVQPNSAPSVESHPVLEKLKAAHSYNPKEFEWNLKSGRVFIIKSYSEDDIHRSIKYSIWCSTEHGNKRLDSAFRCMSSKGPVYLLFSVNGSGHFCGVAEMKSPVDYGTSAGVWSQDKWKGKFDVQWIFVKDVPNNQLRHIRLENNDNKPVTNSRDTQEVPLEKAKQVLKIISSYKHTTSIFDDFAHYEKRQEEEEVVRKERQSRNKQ
As to the kind of experiment: co-IP; cells transfected with SFB-YTHDF1 (WT, AFA or 4A) and HA-CRM1; some samples treated with KPT-330 (Crm1 inhibitor, 5 uM, 24 h), TMG plus glucose, or acetyl-5S-GlcNAc (OGT inhibitor, 100 uM, 24 h).

By UniProt entry, the sequences of proteins in these tests, tags left out.
UniProt O14980: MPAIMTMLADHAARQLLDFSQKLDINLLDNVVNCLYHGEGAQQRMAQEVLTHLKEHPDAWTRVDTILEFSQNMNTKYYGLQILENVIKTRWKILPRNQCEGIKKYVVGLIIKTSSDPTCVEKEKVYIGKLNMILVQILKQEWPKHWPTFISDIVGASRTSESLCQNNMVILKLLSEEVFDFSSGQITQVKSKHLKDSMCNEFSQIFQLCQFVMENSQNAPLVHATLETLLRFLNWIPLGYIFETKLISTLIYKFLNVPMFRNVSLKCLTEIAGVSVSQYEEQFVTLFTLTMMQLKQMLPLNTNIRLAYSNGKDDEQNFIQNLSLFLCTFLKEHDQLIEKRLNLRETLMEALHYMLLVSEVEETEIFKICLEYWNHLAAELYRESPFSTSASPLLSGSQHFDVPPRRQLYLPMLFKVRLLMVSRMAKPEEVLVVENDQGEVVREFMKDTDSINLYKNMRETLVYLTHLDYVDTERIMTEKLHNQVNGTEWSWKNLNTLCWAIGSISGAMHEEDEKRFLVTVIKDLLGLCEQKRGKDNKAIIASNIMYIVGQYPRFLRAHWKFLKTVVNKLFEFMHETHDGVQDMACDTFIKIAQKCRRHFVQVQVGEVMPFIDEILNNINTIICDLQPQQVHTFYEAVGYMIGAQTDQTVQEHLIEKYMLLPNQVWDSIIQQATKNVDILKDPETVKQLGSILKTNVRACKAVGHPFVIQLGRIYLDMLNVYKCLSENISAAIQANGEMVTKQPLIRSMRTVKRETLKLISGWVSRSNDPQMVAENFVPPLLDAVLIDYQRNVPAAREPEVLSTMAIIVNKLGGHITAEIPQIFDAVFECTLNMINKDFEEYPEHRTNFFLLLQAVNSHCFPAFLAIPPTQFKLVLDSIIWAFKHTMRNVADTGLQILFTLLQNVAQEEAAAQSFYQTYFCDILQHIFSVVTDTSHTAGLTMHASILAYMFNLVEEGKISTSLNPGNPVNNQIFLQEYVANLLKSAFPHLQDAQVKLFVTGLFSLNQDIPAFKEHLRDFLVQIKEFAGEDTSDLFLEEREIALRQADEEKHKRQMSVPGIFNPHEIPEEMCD

In assay [2] the target is T2, endogenous YTHDF1 (human (endogenous in HeLa)) (UniProt Q9BYJ9).
T2 sequence: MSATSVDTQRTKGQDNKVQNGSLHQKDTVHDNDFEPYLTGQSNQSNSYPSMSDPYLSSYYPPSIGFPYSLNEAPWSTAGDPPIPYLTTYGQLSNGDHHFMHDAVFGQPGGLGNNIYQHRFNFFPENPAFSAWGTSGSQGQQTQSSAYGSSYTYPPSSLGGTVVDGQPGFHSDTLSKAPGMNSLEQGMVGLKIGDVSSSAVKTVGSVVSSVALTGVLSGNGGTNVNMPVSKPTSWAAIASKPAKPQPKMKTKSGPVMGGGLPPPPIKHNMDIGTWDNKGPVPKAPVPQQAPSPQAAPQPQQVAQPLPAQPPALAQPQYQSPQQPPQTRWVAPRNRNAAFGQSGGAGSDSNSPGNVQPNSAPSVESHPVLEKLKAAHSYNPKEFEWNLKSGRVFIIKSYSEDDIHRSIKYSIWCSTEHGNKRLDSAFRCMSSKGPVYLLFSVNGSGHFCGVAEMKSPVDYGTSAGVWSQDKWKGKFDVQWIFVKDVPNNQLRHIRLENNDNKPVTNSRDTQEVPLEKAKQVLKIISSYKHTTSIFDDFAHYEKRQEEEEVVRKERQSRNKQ
As to the kind of experiment: co-IP; cell lysates immunoprecipitated with anti-YTHDF1 antibodies; endogenous proteins.

Assay [3] has as its target T3, Flag-YTHDF1 (YTH domain family 1) (UniProt Q9BYJ9).
T3 sequence: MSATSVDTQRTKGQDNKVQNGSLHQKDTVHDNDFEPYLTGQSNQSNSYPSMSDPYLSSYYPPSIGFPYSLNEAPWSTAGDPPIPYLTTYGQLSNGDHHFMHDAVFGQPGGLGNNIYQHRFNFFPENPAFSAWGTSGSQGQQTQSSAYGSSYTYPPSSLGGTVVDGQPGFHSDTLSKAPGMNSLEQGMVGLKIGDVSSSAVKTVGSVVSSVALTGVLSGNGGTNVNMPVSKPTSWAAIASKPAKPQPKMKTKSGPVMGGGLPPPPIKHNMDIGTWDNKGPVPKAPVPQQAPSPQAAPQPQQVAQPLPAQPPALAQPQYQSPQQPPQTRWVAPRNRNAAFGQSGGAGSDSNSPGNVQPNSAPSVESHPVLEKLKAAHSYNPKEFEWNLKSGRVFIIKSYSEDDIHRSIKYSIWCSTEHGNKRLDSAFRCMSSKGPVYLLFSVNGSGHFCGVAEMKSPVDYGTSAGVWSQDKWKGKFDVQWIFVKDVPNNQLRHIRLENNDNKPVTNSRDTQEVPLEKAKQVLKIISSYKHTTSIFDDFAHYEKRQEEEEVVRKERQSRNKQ
As to the kind of experiment: co-IP; 293T cells transfected with Flag-YTHDF1 and HA-OGT; lysates immunoprecipitated and immunoblotted. A general note: In western blotting, separated proteins are transferred to a membrane and probed.

Assay [4] has as its target T4, recombinant glutathione-S-transferase-YTHDF1 (UniProt Q9BYJ9).
T4 sequence: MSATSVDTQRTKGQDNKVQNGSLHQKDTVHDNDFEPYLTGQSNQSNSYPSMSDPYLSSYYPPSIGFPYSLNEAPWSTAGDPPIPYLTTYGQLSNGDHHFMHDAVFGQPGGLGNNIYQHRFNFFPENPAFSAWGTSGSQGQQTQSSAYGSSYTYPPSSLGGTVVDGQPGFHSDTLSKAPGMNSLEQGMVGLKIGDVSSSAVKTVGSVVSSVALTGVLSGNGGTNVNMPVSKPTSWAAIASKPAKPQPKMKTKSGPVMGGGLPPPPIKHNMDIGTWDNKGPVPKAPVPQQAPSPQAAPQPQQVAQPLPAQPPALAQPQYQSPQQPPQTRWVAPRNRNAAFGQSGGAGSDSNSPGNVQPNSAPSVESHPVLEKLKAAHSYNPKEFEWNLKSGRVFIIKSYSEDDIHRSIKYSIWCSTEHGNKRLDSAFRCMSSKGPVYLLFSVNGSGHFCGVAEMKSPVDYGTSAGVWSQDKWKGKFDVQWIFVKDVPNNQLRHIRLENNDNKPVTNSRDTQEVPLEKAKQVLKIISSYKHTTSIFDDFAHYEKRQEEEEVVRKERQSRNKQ
As to the kind of experiment: pull-down; lysates of 293T cells transfected with HA-OGT incubated with recombinant GST-YTHDF1; only the target purified.

Assay [5] has as its target T4, recombinant glutathione-S-transferase-YTHDF1. Kind of assay: pull-down; recombinant His-OGT and GST-YTHDF1 proteins incubated; both purified.
The target of assay [6] is T5, endogenous OGT (O-GlcNAc transferase) (human (endogenous in HeLa)) (UniProt O15294).
T5 sequence: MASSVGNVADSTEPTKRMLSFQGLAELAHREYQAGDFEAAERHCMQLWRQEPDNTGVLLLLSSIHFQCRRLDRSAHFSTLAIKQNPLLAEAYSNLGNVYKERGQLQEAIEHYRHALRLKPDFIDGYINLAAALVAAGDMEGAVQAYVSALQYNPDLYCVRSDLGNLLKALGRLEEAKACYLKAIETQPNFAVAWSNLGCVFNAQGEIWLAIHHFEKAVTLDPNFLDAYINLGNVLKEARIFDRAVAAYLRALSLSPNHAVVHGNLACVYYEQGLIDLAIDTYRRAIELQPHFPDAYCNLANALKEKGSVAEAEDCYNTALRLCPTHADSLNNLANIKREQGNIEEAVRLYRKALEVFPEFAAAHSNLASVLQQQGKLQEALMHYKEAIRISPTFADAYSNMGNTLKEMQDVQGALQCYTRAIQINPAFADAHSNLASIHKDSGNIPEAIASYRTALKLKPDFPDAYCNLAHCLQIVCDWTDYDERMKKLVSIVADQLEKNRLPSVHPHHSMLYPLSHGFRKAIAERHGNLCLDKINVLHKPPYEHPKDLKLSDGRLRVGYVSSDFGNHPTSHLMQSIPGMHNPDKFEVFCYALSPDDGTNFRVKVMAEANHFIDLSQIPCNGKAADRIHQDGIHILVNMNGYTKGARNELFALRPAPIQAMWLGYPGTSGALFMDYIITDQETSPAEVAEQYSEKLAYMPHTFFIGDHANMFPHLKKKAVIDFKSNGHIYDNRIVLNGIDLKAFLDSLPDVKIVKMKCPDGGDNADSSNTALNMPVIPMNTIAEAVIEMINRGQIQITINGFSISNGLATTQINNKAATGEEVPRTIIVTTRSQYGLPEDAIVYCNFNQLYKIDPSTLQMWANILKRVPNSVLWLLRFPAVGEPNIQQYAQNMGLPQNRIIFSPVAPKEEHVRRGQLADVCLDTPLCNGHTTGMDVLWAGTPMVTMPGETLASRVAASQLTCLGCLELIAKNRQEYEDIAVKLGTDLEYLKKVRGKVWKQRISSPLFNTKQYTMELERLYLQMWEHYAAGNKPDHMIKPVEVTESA
As to the kind of experiment: co-IP; HeLa cell lysates immunoprecipitated with anti-OGT antibodies; endogenous proteins.

No constants are given. Whether binding was seen depends on the method and setting. For part of these data: Binding seen in cells or lysates may run through a third protein. Some entries that bind do so weakly or less than the wild type. For part of these data: Tags and fused reporters may be left off the sequences shown.

In the case of “HA-CRM1 (exportin 1) (from UniProt O14980 1-1071)”, the binding result in assay [1] was “binds”.

With “endogenous Crm1 (exportin 1) (from UniProt O14980 1-1071)”, the binding entry in assay [2] is reported as “binds”.

B1: HA-OGT (O-GlcNAc transferase) (enzyme, UniProt O15294 1-1046)
chain: MASSVGNVADSTEPTKRMLSFQGLAELAHREYQAGDFEAAERHCMQLWRQEPDNTGVLLLLSSIHFQCRRLDRSAHFSTLAIKQNPLLAEAYSNLGNVYKERGQLQEAIEHYRHALRLKPDFIDGYINLAAALVAAGDMEGAVQAYVSALQYNPDLYCVRSDLGNLLKALGRLEEAKACYLKAIETQPNFAVAWSNLGCVFNAQGEIWLAIHHFEKAVTLDPNFLDAYINLGNVLKEARIFDRAVAAYLRALSLSPNHAVVHGNLACVYYEQGLIDLAIDTYRRAIELQPHFPDAYCNLANALKEKGSVAEAEDCYNTALRLCPTHADSLNNLANIKREQGNIEEAVRLYRKALEVFPEFAAAHSNLASVLQQQGKLQEALMHYKEAIRISPTFADAYSNMGNTLKEMQDVQGALQCYTRAIQINPAFADAHSNLASIHKDSGNIPEAIASYRTALKLKPDFPDAYCNLAHCLQIVCDWTDYDERMKKLVSIVADQLEKNRLPSVHPHHSMLYPLSHGFRKAIAERHGNLCLDKINVLHKPPYEHPKDLKLSDGRLRVGYVSSDFGNHPTSHLMQSIPGMHNPDKFEVFCYALSPDDGTNFRVKVMAEANHFIDLSQIPCNGKAADRIHQDGIHILVNMNGYTKGARNELFALRPAPIQAMWLGYPGTSGALFMDYIITDQETSPAEVAEQYSEKLAYMPHTFFIGDHANMFPHLKKKAVIDFKSNGHIYDNRIVLNGIDLKAFLDSLPDVKIVKMKCPDGGDNADSSNTALNMPVIPMNTIAEAVIEMINRGQIQITINGFSISNGLATTQINNKAATGEEVPRTIIVTTRSQYGLPEDAIVYCNFNQLYKIDPSTLQMWANILKRVPNSVLWLLRFPAVGEPNIQQYAQNMGLPQNRIIFSPVAPKEEHVRRGQLADVCLDTPLCNGHTTGMDVLWAGTPMVTMPGETLASRVAASQLTCLGCLELIAKNRQEYEDIAVKLGTDLEYLKKVRGKVWKQRISSPLFNTKQYTMELERLYLQMWEHYAAGNKPDHMIKPVEVTESA
For the molecule B1, the binding entry in assay [3] and in assay [4] was “binds” in each case.

B2: recombinant His-OGT (enzyme, UniProt O15294 1-1046)
chain: MASSVGNVADSTEPTKRMLSFQGLAELAHREYQAGDFEAAERHCMQLWRQEPDNTGVLLLLSSIHFQCRRLDRSAHFSTLAIKQNPLLAEAYSNLGNVYKERGQLQEAIEHYRHALRLKPDFIDGYINLAAALVAAGDMEGAVQAYVSALQYNPDLYCVRSDLGNLLKALGRLEEAKACYLKAIETQPNFAVAWSNLGCVFNAQGEIWLAIHHFEKAVTLDPNFLDAYINLGNVLKEARIFDRAVAAYLRALSLSPNHAVVHGNLACVYYEQGLIDLAIDTYRRAIELQPHFPDAYCNLANALKEKGSVAEAEDCYNTALRLCPTHADSLNNLANIKREQGNIEEAVRLYRKALEVFPEFAAAHSNLASVLQQQGKLQEALMHYKEAIRISPTFADAYSNMGNTLKEMQDVQGALQCYTRAIQINPAFADAHSNLASIHKDSGNIPEAIASYRTALKLKPDFPDAYCNLAHCLQIVCDWTDYDERMKKLVSIVADQLEKNRLPSVHPHHSMLYPLSHGFRKAIAERHGNLCLDKINVLHKPPYEHPKDLKLSDGRLRVGYVSSDFGNHPTSHLMQSIPGMHNPDKFEVFCYALSPDDGTNFRVKVMAEANHFIDLSQIPCNGKAADRIHQDGIHILVNMNGYTKGARNELFALRPAPIQAMWLGYPGTSGALFMDYIITDQETSPAEVAEQYSEKLAYMPHTFFIGDHANMFPHLKKKAVIDFKSNGHIYDNRIVLNGIDLKAFLDSLPDVKIVKMKCPDGGDNADSSNTALNMPVIPMNTIAEAVIEMINRGQIQITINGFSISNGLATTQINNKAATGEEVPRTIIVTTRSQYGLPEDAIVYCNFNQLYKIDPSTLQMWANILKRVPNSVLWLLRFPAVGEPNIQQYAQNMGLPQNRIIFSPVAPKEEHVRRGQLADVCLDTPLCNGHTTGMDVLWAGTPMVTMPGETLASRVAASQLTCLGCLELIAKNRQEYEDIAVKLGTDLEYLKKVRGKVWKQRISSPLFNTKQYTMELERLYLQMWEHYAAGNKPDHMIKPVEVTESA
For B2, the binding result in assay [5] is “binds”.

B3: endogenous YTHDF1 (protein, UniProt Q9BYJ9 1-559)
chain: MSATSVDTQRTKGQDNKVQNGSLHQKDTVHDNDFEPYLTGQSNQSNSYPSMSDPYLSSYYPPSIGFPYSLNEAPWSTAGDPPIPYLTTYGQLSNGDHHFMHDAVFGQPGGLGNNIYQHRFNFFPENPAFSAWGTSGSQGQQTQSSAYGSSYTYPPSSLGGTVVDGQPGFHSDTLSKAPGMNSLEQGMVGLKIGDVSSSAVKTVGSVVSSVALTGVLSGNGGTNVNMPVSKPTSWAAIASKPAKPQPKMKTKSGPVMGGGLPPPPIKHNMDIGTWDNKGPVPKAPVPQQAPSPQAAPQPQQVAQPLPAQPPALAQPQYQSPQQPPQTRWVAPRNRNAAFGQSGGAGSDSNSPGNVQPNSAPSVESHPVLEKLKAAHSYNPKEFEWNLKSGRVFIIKSYSEDDIHRSIKYSIWCSTEHGNKRLDSAFRCMSSKGPVYLLFSVNGSGHFCGVAEMKSPVDYGTSAGVWSQDKWKGKFDVQWIFVKDVPNNQLRHIRLENNDNKPVTNSRDTQEVPLEKAKQVLKIISSYKHTTSIFDDFAHYEKRQEEEEVVRKERQSRNKQ
Turning to B3, the binding result in assay [6] was “binds”.
